PubChem BioAssay AID686943, Drosophila RNAi Screening Center | 2013
The screen tested about 23,000 reagents; below is a random part of those that have a named target and a result. 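Extra replicates exist only for a retested subset of genes; insulin dose and duration not given; both raised and lowered dpERK matter.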 Reagents against one gene are numbered here. A plus sign joins genes that one reagent is predicted to hit. Not given: the amount of reagent, the time to read-out.

Aim: 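Search across the genome for regulators of signalling from receptor tyrosine kinase to ERK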 (primary screen)
Cell system: Drosophila S2R+ haemocyte-like cells expressing YFP-tagged ERK (Rolled)
Knock-down reagent: long dsRNA against Drosophila genes
Conditions: insulin stimulation versus unstimulated cells; dose and duration not given
Measurement: 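Antibody staining for doubly phosphorylated ERK divided by ERK-YFP signal, as plate z-scores, in insulin-treated and untreated cells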
Direction: replicate 1, z-score of dpERK with insulin and replicate 2, z-score of dpERK with insulin: higher = more active ERK per ERK-YFP after insulin; replicate 1, z-score of dpERK under basal conditions: higher = more basal active ERK per ERK-YFP; replicate 1, z-score of ERK-YFP with insulin: higher = more YFP-tagged ERK signal

| Target gene | reagent | replicate 1, z-score of dpERK with insulin | replicate 2, z-score of dpERK with insulin | replicate 1, z-score of dpERK under basal conditions | replicate 1, z-score of ERK-YFP with insulin |
| --- | --- | --- | --- | --- | --- |
| CG30047 | 1 | 0.14 | 0.27 | -0.37 | 0.1 |
| CG14689 | 1 | 0.42 | 0.23 | 0.25 | -0.65 |
| CG17746 | 1 | 0.94 | 1.08 | -0.17 | -0.2 |
| sel | 1 | 0.36 | -0.08 | 0.6 | -0.12 |
| Sas-4 | 1 | 0.38 | 0.22 | -0.53 | 0.34 |
| CCT8 | 1 | 0.04 | 0.22 | -0.6 | 0.14 |
| phtf | 1 | 0.46 | 0.09 | 1.69 | -0.53 |
| Ns4 | 1 | 0.63 | 0.78 | 0.08 | 0.57 |
| Atu | 1 | 0.13 | 0.12 | -0.53 | 0.59 |
| CG12520 | 1 | 0.32 | 0.39 | -0.07 | 0.46 |
| CG11110 | 1 | 1.52 | 1.4 | 1.92 | -1.52 |
| CG12974 | 1 | -0.24 | 0.12 | 1.24 | 1.07 |
| St2 | 1 | 1.37 | 0.92 | -0.13 | -0.08 |
| St2 | 2 | 0.03 | 0.35 | -1.05 | 3.05 |
| Tsp42Ea | 1 | 0.25 | -0.15 | 0.13 | 0.19 |
| Tsp42Ea | 2 | 1.34 | -0.41 | -0.17 | 0.24 |
| CG13063 | 1 | 0.16 | -0.23 | -1.19 | 0.2 |
| RpS23 | 1 | -1.11 | -1.95 | -0.37 | -2.61 |
| Teh1 | 1 | 1.76 | 0.19 | 0.38 | -0.23 |
| ave | 1 | -4.71 | -3.47 | -0.32 | 0.7 |
| Mhc | 1 | -0.06 | 0.82 | 0.12 | -0.98 |
| CG17528 | 1 | -0.18 | 0.44 | 0.81 | 0.46 |
| Dcr-2 | 1 | 0.32 | -0.01 | 1.05 | 2.31 |
| CG8414 | 1 | 1.12 | 0.53 | 1.46 | 0.5 |
| CG15711 | 1 | 0.58 | 0.63 | -0.77 | 1.24 |
| CG9254 | 1 | 0.37 | -0.53 | 0.14 | -0.07 |
| CG14322 | 1 | 0.33 | -0.17 | -0.73 | 1.01 |
| Sox102F | 1 | 0.48 | 0.08 | -0.38 | -0.28 |
| ham | 1 | 1.15 | 0.04 | -0.07 | 0.21 |
| ham | 2 | 0.99 | 0.83 | 0.03 | 0.17 |
| ham | 3 | 0.37 | 0.8 | 0.15 | 0.77 |
| ham | 4 | 0.17 | 0.8 | 2.4 | 0.16 |
| CG33095 | 1 | -1.11 | -0.33 | -0.9 | 0.75 |
| CG17780 + CG17781 | 1 | -0.17 | -0.1 | -0.28 | 0.22 |
| CG3520 | 1 | -0.5 | -0.16 | 0.16 | 0.54 |
| Vps11 | 1 | 0.51 | 1.26 | 1.1 | 0.56 |
| Vps11 | 2 | 0.11 | 0.41 | -0.23 | -0.27 |
| Coq7 + shf | 1 | -0.41 | -0.09 | -1.04 | 0.38 |
| sv | 1 | -0.28 | 0.04 | -0.53 | -0.16 |
| CG42729 | 1 | -0.44 | -0.14 | -0.47 | 1.41 |
| CG34149 | 1 | 0.36 | -0.05 | -0.19 | 0.22 |
| CG33462 | 1 | 1.14 | -0.08 | -0.69 | -1.71 |
| BigH1 | 1 | -0.2 | 0.32 | 0.8 | 0.3 |
| mre11 | 1 | -0.62 | 0.31 | 0 | 1.02 |
| mre11 | 2 | -0.04 | 0.69 | 0.46 | 1.9 |
| RpL7A | 1 | -1.35 | 0.25 | -2.89 | -2.42 |
| CG14302 | 1 | -0.35 | 0.07 | 0.6 | -0.09 |
| CG15629 | 1 | 1.06 | 0.13 | -0.02 | 0.74 |
| sle | 1 | -0.06 | 0.17 | -0.05 | 0.38 |
| CG13675 | 1 | -0.29 | -1.16 | -1.89 | 0.35 |
| CG13675 | 2 | -5.84 | -4 | -1.5 | 2.76 |
| dj-1beta | 1 | -0.25 | -0.1 | -0.62 | 0.89 |
| rno | 1 | 0.02 | 0.24 | -2.1 | 0.28 |
| CG11498 | 1 | 0.51 | -0.18 | -0.78 | -0.69 |
| ebd2 | 1 | -0.16 | -0.36 | -0.04 | 0.11 |
| Piezo | 1 | 0.34 | 0.53 | -0.02 | 0.11 |
| Piezo | 2 | 0.19 | -1 | -0.97 | 1.11 |
| Fen1 | 1 | -0.2 | 0.62 | 1.08 | -1.3 |
| CG4116 | 1 | 0.3 | 0.5 | 0.79 | 0.32 |
| Abl | 1 | 0.07 | 1.03 | -1.35 | 0.19 |
| CG33964 + CG13175 | 1 | 1.01 | 0.16 | 0.31 | 0.63 |
| CG33964 + CG13175 | 2 | 0.28 | 0.29 | -0.91 | 0.03 |
| CG33964 + CG13175 | 3 | 0.95 | 0.64 | 0.54 | -0.3 |
| px | 1 | -0.24 | -0.08 | -2.27 | 0.17 |
| DIP-delta | 1 | 1.54 | -0.36 | -0.92 | -1.33 |
| DIP-delta | 2 | 0.31 | 1.08 | 0.64 | 1.32 |
| CG34323 | 1 | 0.16 | 0.22 | 0.95 | 0.14 |
| Ing5 | 1 | -2.91 | -2.22 | -1.65 | 0.32 |
| CG9801 | 1 | -0.15 | -0.15 | -0.38 | -0.28 |
| Coq6 | 1 | 0.14 | -0.92 | -0.65 | 0.39 |
| RpS27 | 1 | 1.91 | -0.15 | -2.13 | -4.21 |
| CG11170 | 1 | 0.19 | 0.02 | -0.19 | 0.33 |
| KaiR1D | 1 | 1 | -0.11 | 0.19 | -0.66 |
